No constants are given. Whether binding was seen depends on the method and setting. For part of these data: Binding can be weak; no strength is given.
How the values were obtained:
[1] = molecular target: T1, TKD motif of hHsp70 (14-mer peptide) (human); assay: ELISA; assay repeated with the TKD motifs of PfHsp70-x and hHsp70 and GrB; both purified
T1 sequence (peptide): TKDNNLLGRFELSG

Protein sequences, listed by entry. Tags and fused reporters are not part of them. Lines headed by an entry give the natural chain unless they say otherwise; changes in a name come on top. Residues count along the entry.
UniProt P0DMV8: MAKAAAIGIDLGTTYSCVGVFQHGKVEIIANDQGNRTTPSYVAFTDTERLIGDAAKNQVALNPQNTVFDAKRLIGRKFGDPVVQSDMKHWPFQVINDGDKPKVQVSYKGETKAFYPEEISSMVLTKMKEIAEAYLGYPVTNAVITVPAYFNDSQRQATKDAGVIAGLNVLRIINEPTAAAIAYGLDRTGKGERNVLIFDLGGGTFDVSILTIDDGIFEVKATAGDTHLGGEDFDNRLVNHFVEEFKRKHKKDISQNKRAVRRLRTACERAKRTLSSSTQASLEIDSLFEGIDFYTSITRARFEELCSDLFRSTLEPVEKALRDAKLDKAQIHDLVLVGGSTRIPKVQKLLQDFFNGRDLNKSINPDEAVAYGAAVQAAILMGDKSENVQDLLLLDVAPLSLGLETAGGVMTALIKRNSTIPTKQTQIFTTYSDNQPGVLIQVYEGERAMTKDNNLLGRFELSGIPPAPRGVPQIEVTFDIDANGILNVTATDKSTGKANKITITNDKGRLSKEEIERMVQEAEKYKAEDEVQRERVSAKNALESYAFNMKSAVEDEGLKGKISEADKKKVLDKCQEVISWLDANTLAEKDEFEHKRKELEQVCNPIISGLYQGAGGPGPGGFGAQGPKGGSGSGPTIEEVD
UniProt P02769, residues 25-607: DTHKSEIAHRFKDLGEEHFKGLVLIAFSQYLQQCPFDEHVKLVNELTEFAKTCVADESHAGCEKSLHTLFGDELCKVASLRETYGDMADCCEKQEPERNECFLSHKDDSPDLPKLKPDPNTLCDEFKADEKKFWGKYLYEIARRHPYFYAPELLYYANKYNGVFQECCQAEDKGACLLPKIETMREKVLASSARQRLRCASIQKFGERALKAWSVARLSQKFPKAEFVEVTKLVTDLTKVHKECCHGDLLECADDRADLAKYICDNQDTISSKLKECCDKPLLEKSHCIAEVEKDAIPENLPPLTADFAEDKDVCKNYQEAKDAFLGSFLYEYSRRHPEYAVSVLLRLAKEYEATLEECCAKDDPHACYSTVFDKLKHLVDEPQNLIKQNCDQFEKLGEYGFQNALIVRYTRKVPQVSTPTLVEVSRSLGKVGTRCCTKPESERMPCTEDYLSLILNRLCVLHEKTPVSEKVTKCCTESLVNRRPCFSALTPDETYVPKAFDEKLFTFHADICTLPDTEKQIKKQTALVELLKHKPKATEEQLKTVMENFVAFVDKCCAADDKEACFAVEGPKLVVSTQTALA
UniProt P10144: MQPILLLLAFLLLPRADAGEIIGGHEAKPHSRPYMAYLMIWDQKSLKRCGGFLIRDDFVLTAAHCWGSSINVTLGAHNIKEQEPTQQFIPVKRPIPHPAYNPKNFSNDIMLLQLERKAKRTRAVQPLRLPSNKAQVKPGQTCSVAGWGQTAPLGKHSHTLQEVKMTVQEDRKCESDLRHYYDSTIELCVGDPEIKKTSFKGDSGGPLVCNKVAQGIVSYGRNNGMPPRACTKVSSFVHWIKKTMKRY

[2] = molecular target: T2, synthetic TKD peptide representing the 14-mer TKD motif of PfHsp70-x (P. falciparum); assay: as above
T2 sequence (peptide): TKDNNLLGKFQLEG

human Hsp70 (human) [3] = molecular target: human Hsp70 (human) (UniProt P0DMV8); assay: ELISA; Hsp70 proteins (5 μg) adsorbed on the plate, GrB 0-1000 nM in 2.5% fat-free milk in TBS, 25 °C, 2 h, detected with α-GrB; repeated with 5 mM ATP/ADP; both purified
[4] = molecular target: bovine serum albumin (bovine) (UniProt P02769); assay: far-Western, overlay or dot blot; slot blot: proteins or peptides (5, 10, 20 μg) immobilised on nitrocellulose, overlaid with GrB (10 μg/mL) in 5% fat-free milk overnight at 4 °C, detected with α-GrB; Hsp70s without nucleotide or with 5 mM ADP or ATP; both purified
human Hsp70 (human) [5] = molecular target: human Hsp70 (human) (UniProt P0DMV8); assay: as above
[6] = molecular target: T2, synthetic TKD peptide representing the 14-mer TKD motif of PfHsp70-x (P. falciparum); assay: as above

human granzyme B (from UniProt P10144) (enzyme)
binding [1]: binds
binding [2]: binds
binding (human Hsp70 (human) [3]): binds
binding [4]: no binding (tested: 10 μg/mL GrB)
binding (human Hsp70 (human) [5]): binds
binding [6]: binds

From article PMC10167072, “Human granzyme B binds Plasmodium falciparum Hsp70-x and mediates antiplasmodial activity in vitro” (Cell Stress & Chaperones, 2023)
